Test results reported in patent US20040018528A1, “Novel biomarkers of tyrosine kinase inhibitor exposure and activity in mammals” (Sugen, Inc., priority 2002, published 2004).
No constants are given. Whether binding was seen depends on the method and setting. Some entries that bind do so weakly or less than the wild type.

Amino acid sequences for entries named in this document (tags omitted). A change or cut given only in a name is not applied to a line headed by its entry.
UniProt P15692: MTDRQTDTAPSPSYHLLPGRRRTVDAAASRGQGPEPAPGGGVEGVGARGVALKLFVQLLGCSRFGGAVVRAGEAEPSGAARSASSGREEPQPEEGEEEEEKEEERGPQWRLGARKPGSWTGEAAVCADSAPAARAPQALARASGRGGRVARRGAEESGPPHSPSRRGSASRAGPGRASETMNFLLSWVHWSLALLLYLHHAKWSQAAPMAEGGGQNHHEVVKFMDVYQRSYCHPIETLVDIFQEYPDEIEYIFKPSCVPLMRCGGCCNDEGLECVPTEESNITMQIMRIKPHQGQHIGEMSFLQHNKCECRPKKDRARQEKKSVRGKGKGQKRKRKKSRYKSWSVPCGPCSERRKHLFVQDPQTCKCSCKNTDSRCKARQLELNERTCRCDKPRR

Molecular target: T1, human placenta growth factor (PLGF) (human) (UniProt P49763)
T1 sequence: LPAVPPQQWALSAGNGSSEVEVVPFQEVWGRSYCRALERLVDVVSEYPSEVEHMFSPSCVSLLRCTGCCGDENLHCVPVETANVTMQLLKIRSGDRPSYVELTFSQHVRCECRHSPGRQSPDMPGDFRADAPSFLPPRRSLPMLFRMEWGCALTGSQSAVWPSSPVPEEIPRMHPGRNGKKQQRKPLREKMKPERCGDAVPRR
Test: hybrid sandwich ELISA on patient plasma (VEGF antibodies capture, PLGF antibodies detect)

With “human vascular endothelial growth factor (VEGF) (from UniProt P15692 181-395) (ligand)” the binding was “binds”.
